Measurements reported in paper PMC8463077.
These are yes or no findings as the source states them, for the method shown. In cells and extracts the contact can be indirect. Binding can be weak; no strength is given. For part of these data: Sequences can lack the tags named with a protein.

Sequences of proteins named here, by UniProt entry; tags and fusion partners are left off. A change or cut given only in a name is not applied to a line headed by its entry.
UniProt Q9GZV5: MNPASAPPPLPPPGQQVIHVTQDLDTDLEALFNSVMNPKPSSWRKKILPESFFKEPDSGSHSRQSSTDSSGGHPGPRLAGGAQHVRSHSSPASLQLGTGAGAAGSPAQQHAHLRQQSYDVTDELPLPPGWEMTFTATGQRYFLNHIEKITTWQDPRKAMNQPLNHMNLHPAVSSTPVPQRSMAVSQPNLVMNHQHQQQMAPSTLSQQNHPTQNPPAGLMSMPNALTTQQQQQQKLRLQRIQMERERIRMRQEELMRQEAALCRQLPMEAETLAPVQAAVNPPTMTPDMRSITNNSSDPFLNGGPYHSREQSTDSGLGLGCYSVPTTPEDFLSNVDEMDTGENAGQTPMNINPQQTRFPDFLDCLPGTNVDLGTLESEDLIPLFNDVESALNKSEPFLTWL
UniProt P46937: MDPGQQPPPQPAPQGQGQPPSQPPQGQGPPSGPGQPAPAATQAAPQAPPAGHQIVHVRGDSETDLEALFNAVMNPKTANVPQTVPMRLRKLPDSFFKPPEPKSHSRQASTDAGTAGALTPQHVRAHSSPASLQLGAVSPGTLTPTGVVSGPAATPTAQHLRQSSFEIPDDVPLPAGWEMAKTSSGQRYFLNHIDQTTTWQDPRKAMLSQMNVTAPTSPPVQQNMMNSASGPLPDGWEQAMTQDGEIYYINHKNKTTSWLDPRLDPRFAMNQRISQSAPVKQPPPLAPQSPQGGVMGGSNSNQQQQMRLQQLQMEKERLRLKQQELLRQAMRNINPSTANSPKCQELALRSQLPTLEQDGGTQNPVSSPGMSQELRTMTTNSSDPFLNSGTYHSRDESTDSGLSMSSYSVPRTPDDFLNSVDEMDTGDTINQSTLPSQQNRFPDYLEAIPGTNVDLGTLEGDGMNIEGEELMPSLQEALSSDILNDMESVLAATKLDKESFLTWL
UniProt P40763: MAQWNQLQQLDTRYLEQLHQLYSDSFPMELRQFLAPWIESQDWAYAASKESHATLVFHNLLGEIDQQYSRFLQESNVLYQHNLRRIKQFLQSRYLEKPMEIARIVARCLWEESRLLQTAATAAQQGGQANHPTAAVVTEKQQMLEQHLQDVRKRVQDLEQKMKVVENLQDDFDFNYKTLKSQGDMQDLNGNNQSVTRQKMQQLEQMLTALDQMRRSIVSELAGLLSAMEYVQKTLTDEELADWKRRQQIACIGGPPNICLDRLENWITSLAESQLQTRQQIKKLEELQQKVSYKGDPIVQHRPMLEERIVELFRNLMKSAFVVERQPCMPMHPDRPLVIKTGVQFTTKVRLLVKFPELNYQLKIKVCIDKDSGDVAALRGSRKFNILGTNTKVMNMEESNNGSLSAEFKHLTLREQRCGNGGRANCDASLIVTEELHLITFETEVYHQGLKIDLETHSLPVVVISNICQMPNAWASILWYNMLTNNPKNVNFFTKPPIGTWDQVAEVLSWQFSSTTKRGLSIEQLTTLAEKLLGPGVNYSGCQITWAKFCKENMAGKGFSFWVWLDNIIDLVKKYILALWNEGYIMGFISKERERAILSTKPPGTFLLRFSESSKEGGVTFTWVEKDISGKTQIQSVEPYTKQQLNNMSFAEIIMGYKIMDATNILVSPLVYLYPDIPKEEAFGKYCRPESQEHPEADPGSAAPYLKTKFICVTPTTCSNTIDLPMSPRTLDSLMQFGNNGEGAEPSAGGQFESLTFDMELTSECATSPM

Key:
Assay in all cases: co-IP; HA-tagged YAP or TAZ derivatives co-expressed with FLAG-tagged STAT3 or JUNB in 293T cells for 2 days; IP with anti-HA antibody or control IgG, Dynabead protein G; co-IP buffer 50 mM Tris pH 7.5, 100 mM NaCl, 1.5 mM EGTA, 0.1% Triton X-100; 4°C overnight
[1] = molecular target: HA-tagged TAZ derivative lacking the TEAD domain (UniProt Q9GZV5)
[2] = molecular target: HA-tagged TAZ derivative lacking the WW domain (UniProt Q9GZV5)
[3] = molecular target: HA-tagged YAP derivative lacking the TEAD domain (UniProt P46937)
[4] = molecular target: HA-tagged YAP derivative lacking the WW2 domain (UniProt P46937)

Measured: binding

FLAG-tagged STAT3 (from UniProt P40763 1-770)
binds: [1] | [2] | [3] | [4]

B1: FLAG-tagged JUNB (protein, UniProt P17275 1-347)
chain: MCTKMEQPFYHDDSYTATGYGRAPGGLSLHDYKLLKPSLAVNLADPYRSLKAPGARGPGPEGGGGGSYFSGQGSDTGASLKLASSELERLIVPNSNGVITTTPTPPGQYFYPRGGGSGGGAGGAGGGVTEEQEGFADGFVKALDDLHKMNHVTPPNVSLGATGGPPAGPGGVYAGPEPPPVYTNLSSYSPASASSGGAGAAVGTGSSYPTTTISYLPHAPPFAGGHPAQLGLGRGASTFKEEPQTVPEARSRDATPPVSPINMEDQERIKVERKRLRNRLAATKCRKRKLERIARLEDKVKTLKAENAGLSSTAGLLREQVAQLKQKVMTHVSNGCQLLLGVKGHAF
binds: [2] | [4]
